Patent publication US12516015B2 (AMALIVE LIMITED, priority 2009, dated 2026)
Like-named read-outs stand apart in the source and are kept apart here.

NCCC[C@H](N)C(=O)O.O=C(O)Cc1ccccc1 [L-ornithine phenyl acetate]
Results (crystalline form) (Test 5, Anti-Solvent (IPA) Addition Elevated Temperature, cyclohexanone): No Solid | Results (crystalline form) (Test 6, Anti-Solvent (IPA) Addition Ambient Temperature, cyclohexanone): Form II | Results (crystalline form) (Test 7, Anti-Solvent (IPA) Addition (4° C.), cyclohexanone): Form II | Results (crystalline form) (Test 8, Anti-Solvent (IPA) Addition (−21° C.), cyclohexanone): Form II | Results (crystalline form) (Test 9, Anti-Solvent (Ethanol) Addition Ambient Temperature, cyclohexanone): Form II | Results (crystalline form) (Test 10, Anti-Solvent (Ethanol) Addition (4° C.), cyclohexanone): Form I | Results (crystalline form) (Test 11, Anti-Solvent (Ethanol) Addition (−21° C.), cyclohexanone): Form I | Results (crystalline form) (Test 16, Anti-Solvent (IPA) Addition Elevated Temperature, ethanol/acetone (50:50)): Form II | Results (crystalline form) (Test 17, Anti-Solvent (IPA) Addition Ambient Temperature, ethanol/acetone (50:50)): Form II | Results (crystalline form) (Test 18, Anti-Solvent (IPA) Addition (4° C.), ethanol/acetone (50:50)): Form II | Results (crystalline form) (Test 19, Anti-Solvent (IPA) Addition (−21° C.), ethanol/acetone (50:50)): Form II | Results (crystalline form) (Test 20, Anti-Solvent (Ethanol) Addition Ambient Temperature, ethanol/acetone (50:50)): Form II | Results (crystalline form) (Test 21, Anti-Solvent (Ethanol) Addition (4° C.), ethanol/acetone (50:50)): Form I | Results (crystalline form) (Test 22, Anti-Solvent (Ethanol) Addition (−21° C.), ethanol/acetone (50:50)): Form I | Results (crystalline form) (Test 27, Anti-Solvent (IPA) Addition Elevated Temperature, acetic acid): Form VI | Results (crystalline form) (Test 28, Anti-Solvent (IPA) Addition Ambient Temperature, acetic acid): Form IV | Results (crystalline form) (Test 29, Anti-Solvent (IPA) Addition (4° C.), acetic acid): Form IV | Results (crystalline form) (Test 30, Anti-Solvent (IPA) Addition (−21° C.), acetic acid): Form IV | Results (crystalline form) (Test 31, Anti-Solvent (Ethanol) Addition Ambient Temperature, acetic acid): Form IV | Results (crystalline form) (Test 32, Anti-Solvent (Ethanol) Addition (4° C.), acetic acid): Form IV | Results (crystalline form) (Test 33, Anti-Solvent (Ethanol) Addition (−21° C.), acetic acid): Form IV | Results (crystalline form) (Test 38, Anti-Solvent (IPA) Addition Elevated Temperature, 1-propanol): Form II | Results (crystalline form) (Test 39, Anti-Solvent (IPA) Addition Ambient Temperature, 1-propanol): Form II | Results (crystalline form) (Test 40, Anti-Solvent (IPA) Addition (4° C.), 1-propanol): Form II | Results (crystalline form) (Test 41, Anti-Solvent (IPA) Addition (−21° C.), 1-propanol): Form II | Results (crystalline form) (Test 42, Anti-Solvent (Ethanol) Addition Ambient Temperature, 1-propanol): Form II | Results (crystalline form) (Test 43, Anti-Solvent (Ethanol) Addition (4° C.), 1-propanol): Form I/II | Results (crystalline form) (Test 44, Anti-Solvent (Ethanol) Addition (−21° C.), 1-propanol): Form I | Results (crystalline form) (Test 49, Anti-Solvent (IPA) Addition Elevated Temperature, dimethylcarbonate): Form II | Results (crystalline form) (Test 50, Anti-Solvent (IPA) Addition Ambient Temperature, dimethylcarbonate): Form II | Results (crystalline form) (Test 51, Anti-Solvent (IPA) Addition (4° C.), dimethylcarbonate): Form II | Results (crystalline form) (Test 52, Anti-Solvent (IPA) Addition (−21° C.), dimethylcarbonate): Form II | Results (crystalline form) (Test 53, Anti-Solvent (Ethanol) Addition Ambient Temperature, dimethylcarbonate): Form II | Results (crystalline form) (Test 54, Anti-Solvent (Ethanol) Addition (4° C.), dimethylcarbonate): Form I | Results (crystalline form) (Test 55, Anti-Solvent (Ethanol) Addition (−21° C.), dimethylcarbonate): Form II | Results (crystalline form) (Test 60, Anti-Solvent (IPA) Addition Elevated Temperature, NMP): Form II | Results (crystalline form) (Test 61, Anti-Solvent (IPA) Addition Ambient Temperature, NMP): Form II | Results (crystalline form) (Test 62, Anti-Solvent (IPA) Addition (4° C.), NMP): Form II | Results (crystalline form) (Test 63, Anti-Solvent (IPA) Addition (−21° C.), NMP): Form II | Results (crystalline form) (Test 64, Anti-Solvent (Ethanol) Addition Ambient Temperature, NMP): Form II | Results (crystalline form) (Test 65, Anti-Solvent (Ethanol) Addition (4° C.), NMP): Form I/II | Results (crystalline form) (Test 66, Anti-Solvent (Ethanol) Addition (−21° C.), NMP): Form II | Results (crystalline form) (Test 71, Anti-Solvent (IPA) Addition Elevated Temperature, etOAc/cyclohexane (1:2)): Form II | Results (crystalline form) (Test 72, Anti-Solvent (IPA) Addition Ambient Temperature, etOAc/cyclohexane (1:2)): Form II | Results (crystalline form) (Test 73, Anti-Solvent (IPA) Addition (4° C.), etOAc/cyclohexane (1:2)): Form II | Results (crystalline form) (Test 74, Anti-Solvent (IPA) Addition (−21° C.), etOAc/cyclohexane (1:2)): Form II | Results (crystalline form) (Test 75, Anti-Solvent (Ethanol) Addition Ambient Temperature, etOAc/cyclohexane (1:2)): Form II | Results (crystalline form) (Test 76, Anti-Solvent (Ethanol) Addition (4° C.), etOAc/cyclohexane (1:2)): Form I | Results (crystalline form) (Test 77, Anti-Solvent (Ethanol) Addition (−21° C.), etOAc/cyclohexane (1:2)): Form I/II | Results (crystalline form) (Test 82, Anti-Solvent (IPA) Addition Elevated Temperature, etOAc/toluene (1:2)): Form II | Results (crystalline form) (Test 83, Anti-Solvent (IPA) Addition Ambient Temperature, etOAc/toluene (1:2)): Form II | Results (crystalline form) (Test 84, Anti-Solvent (IPA) Addition (4° C.), etOAc/toluene (1:2)): Form II | Results (crystalline form) (Test 85, Anti-Solvent (IPA) Addition (−21° C.), etOAc/toluene (1:2)): Form II | Results (crystalline form) (Test 86, Anti-Solvent (Ethanol) Addition Ambient Temperature, etOAc/toluene (1:2)): Form II | Results (crystalline form) (Test 87, Anti-Solvent (Ethanol) Addition (4° C.), etOAc/toluene (1:2)): Form I | Results (crystalline form) (Test 88, Anti-Solvent (Ethanol) Addition (−21° C.), etOAc/toluene (1:2)): Form II | Results (crystalline form) (Test 93, Anti-Solvent (IPA) Addition Elevated Temperature, IPA/diisopropyl ether (1:2)): Form II | Results (crystalline form) (Test 94, Anti-Solvent (IPA) Addition Ambient Temperature, IPA/diisopropyl ether (1:2)): Form II | Results (crystalline form) (Test 95, Anti-Solvent (IPA) Addition (4° C.), IPA/diisopropyl ether (1:2)): Form II | Results (crystalline form) (Test 96, Anti-Solvent (IPA) Addition (−21° C.), IPA/diisopropyl ether (1:2)): Form II | Results (crystalline form) (Test 97, Anti-Solvent (Ethanol) Addition Ambient Temperature, IPA/diisopropyl ether (1:2)): Form II | Results (crystalline form) (Test 98, Anti-Solvent (Ethanol) Addition (4° C.), IPA/diisopropyl ether (1:2)): Form I | Results (crystalline form) (Test 99, Anti-Solvent (Ethanol) Addition (−21° C.), IPA/diisopropyl ether (1:2)): Form I/II | Results (crystalline form) (Test 104, Anti-Solvent (IPA) Addition Elevated Temperature, DIPE): Form II | Results (crystalline form) (Test 105, Anti-Solvent (IPA) Addition Ambient Temperature, DIPE): Form II | Results (crystalline form) (Test 106, Anti-Solvent (IPA) Addition (4° C.), DIPE): Form II | Results (crystalline form) (Test 107, Anti-Solvent (IPA) Addition (−21° C.), DIPE): Form II | Results (crystalline form) (Test 108, Anti-Solvent (Ethanol) Addition Ambient Temperature, DIPE): Form II | Results (crystalline form) (Test 109, Anti-Solvent (Ethanol) Addition (4° C.), DIPE): Form I | Results (crystalline form) (Test 110, Anti-Solvent (Ethanol) Addition (−21° C.), DIPE): Form II | Results (crystalline form) (Test 115, Anti-Solvent (IPA) Addition Elevated Temperature, nitromethane/water (20%)): No Solid | Results (crystalline form) (Test 116, Anti-Solvent (IPA) Addition Ambient Temperature, nitromethane/water (20%)): Form II | Results (crystalline form) (Test 117, Anti-Solvent (IPA) Addition (4° C.), nitromethane/water (20%)): Form II | Results (crystalline form) (Test 118, Anti-Solvent (IPA) Addition (−21° C.), nitromethane/water (20%)): Form II | Results (crystalline form) (Test 119, Anti-Solvent (Ethanol) Addition Ambient Temperature, nitromethane/water (20%)): Form II | Results (crystalline form) (Test 120, Anti-Solvent (Ethanol) Addition (4° C.), nitromethane/water (20%)): Form I | Results (crystalline form) (Test 121, Anti-Solvent (Ethanol) Addition (−21° C.), nitromethane/water (20%)): Form I/II | Results (crystalline form) (Test 126, Anti-Solvent (IPA) Addition Elevated Temperature, acetone/water (20%)): Form II | Results (crystalline form) (Test 127, Anti-Solvent (IPA) Addition Ambient Temperature, acetone/water (20%)): Form II | Results (crystalline form) (Test 128, Anti-Solvent (IPA) Addition (4° C.), acetone/water (20%)): Form II | Results (crystalline form) (Test 129, Anti-Solvent (IPA) Addition (−21° C.), acetone/water (20%)): Form II | Results (crystalline form) (Test 130, Anti-Solvent (Ethanol) Addition Ambient Temperature, acetone/water (20%)): Form II | Results (crystalline form) (Test 131, Anti-Solvent (Ethanol) Addition (4° C.), acetone/water (20%)): Form I | Results (crystalline form) (Test 132, Anti-Solvent (Ethanol) Addition (−21° C.), acetone/water (20%)): Form II | Results (crystalline form) (Test 137, Anti-Solvent (IPA) Addition Elevated Temperature, 1,4 dioxane/water (20%)): Form II | Results (crystalline form) (Test 138, Anti-Solvent (IPA) Addition Ambient Temperature, 1,4 dioxane/water (20%)): Form II | Results (crystalline form) (Test 139, Anti-Solvent (IPA) Addition (4° C.), 1,4 dioxane/water (20%)): Form II | Results (crystalline form) (Test 140, Anti-Solvent (IPA) Addition (−21° C.), 1,4 dioxane/water (20%)): Form II | Results (crystalline form) (Test 141, Anti-Solvent (Ethanol) Addition Ambient Temperature, 1,4 dioxane/water (20%)): Form II | Results (crystalline form) (Test 142, Anti-Solvent (Ethanol) Addition (4° C.), 1,4 dioxane/water (20%)): Form I | Results (crystalline form) (Test 143, Anti-Solvent (Ethanol) Addition (−21° C.), 1,4 dioxane/water (20%)): Form II
